Measurements from PubChem BioAssay AID250 (DTP/NCI, 2004).
The list is a part of this screen's results and no random one: its compounds were picked by chemical class. Not every dose and run of a compound is shown. T/C: endpoint of the treated group in % of that of the vehicle group. Some doses have a count of surviving animals in place of a T/C: the source holds a T/C of zero for them, seemingly a mark for toxic or unscored doses. Some survivor counts are full or nearly so, which does not show that the dose was tolerated: survival well below the control is almost never listed, so the zero probably covers shortened survival too. For part of these data: Survivors were counted at the toxicity check, usually on the fifth day, unless a day is given; later deaths do not show. Schedules are NCI's codes, taken here to give the interval after Q, in days (D) or hours (H), and the number of doses after X. Where survival is the endpoint, the PubChem record calls one and a half times the control and up active, and a quarter to a half above the control has no call in these data; cut-offs in other NCI protocols can differ. Some doses were run more than once; the results are listed from low to high. Some schedules carry Z or #; the key to these is not given. Some T/C values are followed by the survivors on the day toxicity was checked, most often the fifth; without a count or a note in brackets, all were alive then.

Columns and labels:
[1] = tested on: BDF1 mice, L1210 leukemia sc, survival T/C; assay: NCI In Vivo Anticancer Drug Screen. Data for tumor model L1210 Leukemia (subcutaneous) in B6D2F1 (BDF1) mice; details: T/C endpoint: median survival time, higher T/C = longer survival
Outline: (§1)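 Mice carrying transplanted tumors received test compounds, and survival or tumor size was measured. Values are the treated-group measurement (T) divided by that of the vehicle-treated control group (C).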

[2] = tested on: BDF1 mice, L1210 leukemia sc; assay: as above; details: T/C endpoint: median survival time, higher T/C = longer survival
Outline: as §1

[3] = dose: 180.0 mg/kg/injection, schedule: Q07DX003 (sc), vehicle: Klucel (hydroxypropylcellulose) (HPC), evaluated on day 7

NC(=O)c1[nH]cnc1/N=N\N(CCCl)CCCl
T/C ([1]; dose: 12.5 mg/kg/injection, schedule: Q01DX009 (ip), vehicle: Klucel (hydroxypropylcellulose) (HPC)): 165 % of control
T/C ([1]; dose: 18.75 mg/kg/injection, schedule: Q01DX009 (sc), vehicle: saline with Tween-80): 152 % of control [9 of 10 alive]
T/C ([1]; dose: 25.0 mg/kg/injection, schedule: Q01DX009 (ip), vehicle: Klucel (hydroxypropylcellulose) (HPC)): 190 % of control
T/C ([1]; dose: 37.5 mg/kg/injection, schedule: Q01DX Z (sc), vehicle: carboxymethylcellulose (CMC)): 116 % of control
T/C ([1]; dose: 37.5 mg/kg/injection, schedule: Q## X Z (sc), vehicle: carboxymethylcellulose (CMC)): 122 % of control
T/C ([1]; dose: 50.0 mg/kg/injection, schedule: Q01DX009 (ip), vehicle: Klucel (hydroxypropylcellulose) (HPC)): 180 % of control
T/C ([1]; dose: 74.0 mg/kg/injection, schedule: Q## X Z (sc), vehicle: carboxymethylcellulose (CMC)): 366 % of control
T/C ([1]; dose: 75.0 mg/kg/injection, schedule: Q01DX009 (sc), vehicle: saline with Tween-80): 204 % of control
T/C ([1]; dose: 75.0 mg/kg/injection, schedule: Q01DX Z (sc), vehicle: carboxymethylcellulose (CMC)): 300 % of control
T/C ([1]; dose: 149.0 mg/kg/injection, schedule: Q## X Z (sc), vehicle: carboxymethylcellulose (CMC)): 500 % of control
T/C ([1]; dose: 150.0 mg/kg/injection, schedule: Q01DX009 (sc), vehicle: saline with Tween-80): 163 % of control
T/C ([1]; dose: 150.0 mg/kg/injection, schedule: Q01DX Z (sc), vehicle: carboxymethylcellulose (CMC)): 366 % of control
T/C ([1]; dose: 150.0 mg/kg/injection, schedule: Q07DX Z (sc), vehicle: carboxymethylcellulose (CMC)): 150 % of control
T/C ([1]; dose: 150.0 mg/kg/injection, schedule: Q## X Z (sc), vehicle: carboxymethylcellulose (CMC)): 227 % of control
T/C [1, 3]: 209 and 222 % of control
T/C ([1]; dose: 180.0 mg/kg/injection, schedule: Q07DX003 (sc), vehicle: Klucel (hydroxypropylcellulose) (HPC), evaluated on day 63): 209 % of control
T/C ([1]; dose: 180.0 mg/kg/injection, schedule: Q07DX003 (sc), vehicle: Klucel (hydroxypropylcellulose) (HPC), evaluated on day 64): 211 % of control
T/C ([1]; dose: 180.0 mg/kg/injection, schedule: Q08DX003 (sc), vehicle: steroid suspending solution, evaluated on day 6): 157 % of control
T/C ([1]; dose: 180.0 mg/kg/injection, schedule: Q08DX003 (sc), vehicle: steroid suspending solution, evaluated on day 47): 161 % of control
T/C ([1]; dose: 299.0 mg/kg/injection, schedule: Q01DX001 (sc), vehicle: carboxymethylcellulose (CMC)): 172 % of control
T/C ([1]; dose: 299.0 mg/kg/injection, schedule: Q## X Z (sc), vehicle: carboxymethylcellulose (CMC)): 344 % of control
T/C ([1]; dose: 300.0 mg/kg/injection, schedule: Q01DX Z (sc), vehicle: carboxymethylcellulose (CMC)): 294 % of control
T/C ([1]; dose: 300.0 mg/kg/injection, schedule: Q07DX003 (sc), vehicle: Klucel (hydroxypropylcellulose) (HPC), evaluated on day 7): 193, 200, 231 % of control
T/C ([1]; dose: 300.0 mg/kg/injection, schedule: Q07DX003 (sc), vehicle: Klucel (hydroxypropylcellulose) (HPC), evaluated on day 51): 165 % of control
T/C ([1]; dose: 300.0 mg/kg/injection, schedule: Q07DX003 (sc), vehicle: Klucel (hydroxypropylcellulose) (HPC), evaluated on day 63): 231 % of control
T/C ([1]; dose: 300.0 mg/kg/injection, schedule: Q07DX003 (sc), vehicle: Klucel (hydroxypropylcellulose) (HPC), evaluated on day 64): 200 % of control
T/C ([1]; dose: 300.0 mg/kg/injection, schedule: Q07DX Z (sc), vehicle: carboxymethylcellulose (CMC)): 388 % of control
T/C ([1]; dose: 300.0 mg/kg/injection, schedule: Q08DX003 (sc), vehicle: steroid suspending solution, evaluated on day 6): 202 % of control
T/C ([1]; dose: 300.0 mg/kg/injection, schedule: Q08DX003 (sc), vehicle: steroid suspending solution, evaluated on day 47): 194 % of control
T/C ([1]; dose: 300.0 mg/kg/injection, schedule: Q## X Z (sc), vehicle: carboxymethylcellulose (CMC)): 377 % of control
T/C ([1]; dose: 400.0 mg/kg/injection, schedule: Q01DX001 (ip), vehicle: Klucel (hydroxypropylcellulose) (HPC)): 206 % of control
T/C ([1]; dose: 400.0 mg/kg/injection, schedule: Q01DX009 (ip), vehicle: Klucel (hydroxypropylcellulose) (HPC)): 100 % of control
T/C ([1]; dose: 500.0 mg/kg/injection, schedule: Q07DX003 (sc), vehicle: Klucel (hydroxypropylcellulose) (HPC), evaluated on day 7): 204, 277, 293 % of control
T/C ([1]; dose: 500.0 mg/kg/injection, schedule: Q07DX003 (sc), vehicle: Klucel (hydroxypropylcellulose) (HPC), evaluated on day 51): 195 % of control
T/C ([1]; dose: 500.0 mg/kg/injection, schedule: Q07DX003 (sc), vehicle: Klucel (hydroxypropylcellulose) (HPC), evaluated on day 63): 293 % of control
T/C ([1]; dose: 500.0 mg/kg/injection, schedule: Q07DX003 (sc), vehicle: Klucel (hydroxypropylcellulose) (HPC), evaluated on day 64): 255 % of control
T/C ([1]; dose: 500.0 mg/kg/injection, schedule: Q08DX003 (sc), vehicle: steroid suspending solution, evaluated on day 6): 351 % of control
T/C ([1]; dose: 500.0 mg/kg/injection, schedule: Q08DX003 (sc), vehicle: steroid suspending solution, evaluated on day 47): 355 % of control
T/C ([1]; dose: 599.0 mg/kg/injection, schedule: Q01DX001 (sc), vehicle: carboxymethylcellulose (CMC)): 188 % of control
T/C ([1]; dose: 599.0 mg/kg/injection, schedule: Q## X Z (sc), vehicle: carboxymethylcellulose (CMC)): 216 % of control
T/C ([1]; dose: 600.0 mg/kg/injection, schedule: Q07DX Z (sc), vehicle: carboxymethylcellulose (CMC)): 411 % of control
T/C ([1]; dose: 600.0 mg/kg/injection, schedule: Q## X Z (sc), vehicle: carboxymethylcellulose (CMC)): 100 % of control
T/C ([1]; dose: 800.0 mg/kg/injection, schedule: Q01DX001 (ip), vehicle: Klucel (hydroxypropylcellulose) (HPC)): 112 % of control
survivor count ([1]; dose: 800.0 mg/kg/injection, schedule: Q01DX009 (ip), vehicle: Klucel (hydroxypropylcellulose) (HPC)): 6 of 8
T/C ([1]; dose: 833.0 mg/kg/injection, schedule: Q07DX003 (sc), vehicle: Klucel (hydroxypropylcellulose) (HPC), evaluated on day 7): 288 and 304 % of control
T/C ([1]; dose: 833.0 mg/kg/injection, schedule: Q07DX003 (sc), vehicle: Klucel (hydroxypropylcellulose) (HPC), evaluated on day 63): 304 % of control
T/C ([1]; dose: 833.0 mg/kg/injection, schedule: Q07DX003 (sc), vehicle: Klucel (hydroxypropylcellulose) (HPC), evaluated on day 64): 283 % of control
T/C ([1]; dose: 833.0 mg/kg/injection, schedule: Q08DX003 (sc), vehicle: steroid suspending solution, evaluated on day 6): 319 % of control
T/C ([1]; dose: 833.0 mg/kg/injection, schedule: Q08DX003 (sc), vehicle: steroid suspending solution, evaluated on day 47): 322 % of control
T/C ([1]; dose: 1199.0 mg/kg/injection, schedule: Q01DX001 (sc), vehicle: carboxymethylcellulose (CMC)): 250 % of control
T/C ([1]; dose: 1200.0 mg/kg/injection, schedule: Q07DX Z (sc), vehicle: carboxymethylcellulose (CMC)): 283 % of control
T/C ([1]; dose: 1388.0 mg/kg/injection, schedule: Q07DX003 (sc), vehicle: Klucel (hydroxypropylcellulose) (HPC), evaluated on day 7): 331 % of control
T/C ([1]; dose: 1388.0 mg/kg/injection, schedule: Q07DX003 (sc), vehicle: Klucel (hydroxypropylcellulose) (HPC), evaluated on day 64): 322 % of control
T/C ([2]; dose: 37.5 mg/kg/injection, schedule: Q01DX009 (sc), vehicle: saline with Tween-80): 144 % of control [9 of 10 alive]
T/C ([2]; dose: 75.0 mg/kg/injection, schedule: Q## X Z (sc), vehicle: carboxymethylcellulose (CMC)): 127 % of control
T/C ([2]; dose: 100.0 mg/kg/injection, schedule: Q01DX001 (ip), vehicle: Klucel (hydroxypropylcellulose) (HPC)): 125 % of control
T/C ([2]; dose: 100.0 mg/kg/injection, schedule: Q01DX009 (ip), vehicle: Klucel (hydroxypropylcellulose) (HPC)): 140 % of control [7 of 8 alive]
T/C ([2]; dose: 108.0 mg/kg/injection, schedule: Q07DX003 (sc), vehicle: Klucel (hydroxypropylcellulose) (HPC), evaluated on day 7): 135 % of control
T/C ([2]; dose: 108.0 mg/kg/injection, schedule: Q07DX003 (sc), vehicle: Klucel (hydroxypropylcellulose) (HPC), evaluated on day 51): 130 % of control
T/C ([2]; dose: 108.0 mg/kg/injection, schedule: Q08DX003 (sc), vehicle: steroid suspending solution, evaluated on day 6): 136 % of control
T/C ([2]; dose: 108.0 mg/kg/injection, schedule: Q08DX003 (sc), vehicle: steroid suspending solution, evaluated on day 47): 138 % of control
T/C ([2]; dose: 149.0 mg/kg/injection, schedule: Q01DX001 (sc), vehicle: carboxymethylcellulose (CMC)): 133 % of control
T/C [2, 3]: 145 % of control
T/C ([2]; dose: 180.0 mg/kg/injection, schedule: Q07DX003 (sc), vehicle: Klucel (hydroxypropylcellulose) (HPC), evaluated on day 51): 140 % of control
T/C ([2]; dose: 200.0 mg/kg/injection, schedule: Q01DX001 (ip), vehicle: Klucel (hydroxypropylcellulose) (HPC)): 137 % of control
T/C ([2]; dose: 200.0 mg/kg/injection, schedule: Q01DX009 (ip), vehicle: Klucel (hydroxypropylcellulose) (HPC)): 135 % of control
